Measurements: the supplement of paper PMC10849652
The other results are listed elsewhere or left out.

The chains behind the UniProt entries cited, without tags or fusion partners. Where a name states a change or a piece, a line headed by the entry shows the natural chain unless it says otherwise.
UniProt P04921: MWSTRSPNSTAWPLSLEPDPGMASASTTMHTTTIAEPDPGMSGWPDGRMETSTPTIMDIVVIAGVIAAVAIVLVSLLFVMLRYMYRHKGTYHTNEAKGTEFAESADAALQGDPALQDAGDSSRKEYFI
UniProt Q9H583: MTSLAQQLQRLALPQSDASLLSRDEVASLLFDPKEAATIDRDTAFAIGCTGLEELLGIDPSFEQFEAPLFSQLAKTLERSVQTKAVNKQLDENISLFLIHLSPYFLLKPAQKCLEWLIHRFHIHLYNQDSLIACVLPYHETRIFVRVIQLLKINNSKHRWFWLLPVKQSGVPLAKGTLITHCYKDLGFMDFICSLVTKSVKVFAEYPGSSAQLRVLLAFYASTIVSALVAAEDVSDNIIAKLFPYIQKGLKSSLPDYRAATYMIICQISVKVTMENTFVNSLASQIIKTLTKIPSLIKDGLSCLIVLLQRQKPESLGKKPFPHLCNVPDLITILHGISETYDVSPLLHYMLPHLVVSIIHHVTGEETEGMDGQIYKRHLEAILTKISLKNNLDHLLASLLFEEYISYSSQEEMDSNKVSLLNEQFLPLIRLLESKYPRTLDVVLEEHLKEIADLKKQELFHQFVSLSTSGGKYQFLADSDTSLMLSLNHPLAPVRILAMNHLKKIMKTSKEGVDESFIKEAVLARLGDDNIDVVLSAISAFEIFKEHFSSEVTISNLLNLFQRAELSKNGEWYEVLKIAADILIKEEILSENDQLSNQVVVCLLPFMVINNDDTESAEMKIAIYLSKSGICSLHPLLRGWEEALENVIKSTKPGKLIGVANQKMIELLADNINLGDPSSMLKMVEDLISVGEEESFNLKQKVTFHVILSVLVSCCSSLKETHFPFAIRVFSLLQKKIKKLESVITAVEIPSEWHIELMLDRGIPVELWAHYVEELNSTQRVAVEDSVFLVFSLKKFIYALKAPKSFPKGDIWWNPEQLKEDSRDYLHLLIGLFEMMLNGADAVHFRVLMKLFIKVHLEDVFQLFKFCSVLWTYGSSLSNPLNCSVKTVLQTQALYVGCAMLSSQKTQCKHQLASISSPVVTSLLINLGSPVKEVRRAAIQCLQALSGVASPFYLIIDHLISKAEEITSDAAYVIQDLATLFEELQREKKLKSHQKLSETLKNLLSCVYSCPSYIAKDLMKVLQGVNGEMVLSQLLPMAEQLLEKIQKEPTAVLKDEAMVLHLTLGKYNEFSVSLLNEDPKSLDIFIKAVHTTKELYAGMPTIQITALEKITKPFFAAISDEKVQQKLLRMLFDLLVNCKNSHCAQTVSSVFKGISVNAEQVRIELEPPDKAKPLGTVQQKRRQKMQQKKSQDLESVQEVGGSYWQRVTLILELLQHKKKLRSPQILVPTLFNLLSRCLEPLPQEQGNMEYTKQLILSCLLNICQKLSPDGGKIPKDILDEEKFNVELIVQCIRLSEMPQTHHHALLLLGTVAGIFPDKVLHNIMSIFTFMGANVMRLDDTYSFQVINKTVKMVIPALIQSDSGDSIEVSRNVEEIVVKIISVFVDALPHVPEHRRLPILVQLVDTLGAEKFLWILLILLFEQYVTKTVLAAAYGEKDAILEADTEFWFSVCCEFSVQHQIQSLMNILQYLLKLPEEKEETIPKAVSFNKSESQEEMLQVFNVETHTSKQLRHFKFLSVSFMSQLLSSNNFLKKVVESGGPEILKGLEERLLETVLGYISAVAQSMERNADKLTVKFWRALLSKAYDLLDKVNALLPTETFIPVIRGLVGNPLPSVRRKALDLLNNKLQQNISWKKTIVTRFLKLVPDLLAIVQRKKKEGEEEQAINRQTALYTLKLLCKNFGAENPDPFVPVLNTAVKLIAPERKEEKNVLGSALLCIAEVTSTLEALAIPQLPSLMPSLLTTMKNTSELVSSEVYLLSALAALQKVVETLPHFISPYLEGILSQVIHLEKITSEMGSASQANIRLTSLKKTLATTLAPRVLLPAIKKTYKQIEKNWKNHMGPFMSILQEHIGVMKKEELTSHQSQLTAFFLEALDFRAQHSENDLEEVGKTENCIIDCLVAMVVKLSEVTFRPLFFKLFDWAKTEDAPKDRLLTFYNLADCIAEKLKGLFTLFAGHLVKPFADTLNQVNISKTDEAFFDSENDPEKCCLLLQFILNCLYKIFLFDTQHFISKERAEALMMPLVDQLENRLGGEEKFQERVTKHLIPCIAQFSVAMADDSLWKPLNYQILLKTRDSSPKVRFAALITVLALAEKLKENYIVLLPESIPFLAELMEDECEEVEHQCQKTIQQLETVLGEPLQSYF
UniProt P00390: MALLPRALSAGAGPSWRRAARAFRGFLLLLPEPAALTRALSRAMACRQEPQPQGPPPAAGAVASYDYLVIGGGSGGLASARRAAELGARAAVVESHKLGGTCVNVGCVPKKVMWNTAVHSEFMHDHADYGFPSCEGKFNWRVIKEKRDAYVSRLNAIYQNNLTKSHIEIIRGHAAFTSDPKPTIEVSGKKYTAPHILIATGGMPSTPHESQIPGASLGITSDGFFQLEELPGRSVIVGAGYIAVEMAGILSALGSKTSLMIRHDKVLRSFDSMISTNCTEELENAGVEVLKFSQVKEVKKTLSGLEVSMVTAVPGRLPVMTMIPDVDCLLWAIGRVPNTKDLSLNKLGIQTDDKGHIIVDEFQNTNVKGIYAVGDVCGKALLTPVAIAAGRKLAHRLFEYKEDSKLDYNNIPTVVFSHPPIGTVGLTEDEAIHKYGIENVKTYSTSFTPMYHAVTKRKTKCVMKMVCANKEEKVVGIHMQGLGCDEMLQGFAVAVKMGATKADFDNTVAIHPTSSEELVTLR
UniProt P78417: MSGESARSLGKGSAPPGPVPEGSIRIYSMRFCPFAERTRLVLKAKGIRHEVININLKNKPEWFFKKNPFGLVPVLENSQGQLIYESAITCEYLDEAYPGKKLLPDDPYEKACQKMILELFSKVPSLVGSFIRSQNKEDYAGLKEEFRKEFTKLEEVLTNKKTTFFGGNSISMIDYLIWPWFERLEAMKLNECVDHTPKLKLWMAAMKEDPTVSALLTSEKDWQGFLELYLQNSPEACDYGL
UniProt P28161: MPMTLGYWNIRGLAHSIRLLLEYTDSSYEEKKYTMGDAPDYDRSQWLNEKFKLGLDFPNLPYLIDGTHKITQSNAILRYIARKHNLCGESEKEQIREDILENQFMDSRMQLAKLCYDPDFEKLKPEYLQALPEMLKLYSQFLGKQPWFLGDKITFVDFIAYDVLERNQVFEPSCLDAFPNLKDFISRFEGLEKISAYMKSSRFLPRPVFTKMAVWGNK
UniProt P52655, whole entry, looked up: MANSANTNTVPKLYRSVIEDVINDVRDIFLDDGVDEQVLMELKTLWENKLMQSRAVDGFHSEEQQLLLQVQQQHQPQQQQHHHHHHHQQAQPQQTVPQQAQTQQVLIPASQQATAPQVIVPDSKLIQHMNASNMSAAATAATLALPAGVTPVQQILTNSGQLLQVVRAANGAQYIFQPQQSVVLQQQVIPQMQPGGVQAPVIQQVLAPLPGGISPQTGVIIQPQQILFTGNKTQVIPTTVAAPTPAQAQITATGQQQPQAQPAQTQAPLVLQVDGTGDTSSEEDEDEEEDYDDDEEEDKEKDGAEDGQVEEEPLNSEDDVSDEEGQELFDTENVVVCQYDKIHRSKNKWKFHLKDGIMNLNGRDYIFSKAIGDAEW
UniProt Q8N442: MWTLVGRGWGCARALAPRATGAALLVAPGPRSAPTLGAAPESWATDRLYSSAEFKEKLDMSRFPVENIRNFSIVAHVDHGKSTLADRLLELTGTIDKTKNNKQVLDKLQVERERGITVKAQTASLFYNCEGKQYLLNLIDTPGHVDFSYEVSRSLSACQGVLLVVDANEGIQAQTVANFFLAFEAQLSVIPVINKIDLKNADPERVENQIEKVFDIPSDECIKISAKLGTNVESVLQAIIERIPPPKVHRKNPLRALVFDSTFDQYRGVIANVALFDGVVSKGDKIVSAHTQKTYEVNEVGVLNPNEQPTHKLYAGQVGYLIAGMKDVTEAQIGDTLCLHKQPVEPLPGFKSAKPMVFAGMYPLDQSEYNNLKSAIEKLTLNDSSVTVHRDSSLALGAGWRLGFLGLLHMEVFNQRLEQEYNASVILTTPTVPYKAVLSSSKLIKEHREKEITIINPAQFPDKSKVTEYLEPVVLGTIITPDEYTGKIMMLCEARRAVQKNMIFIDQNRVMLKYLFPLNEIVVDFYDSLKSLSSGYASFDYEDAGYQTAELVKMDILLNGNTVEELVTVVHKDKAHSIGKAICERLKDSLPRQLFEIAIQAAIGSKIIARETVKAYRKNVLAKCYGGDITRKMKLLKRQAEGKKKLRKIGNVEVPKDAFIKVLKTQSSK
UniProt Q14469: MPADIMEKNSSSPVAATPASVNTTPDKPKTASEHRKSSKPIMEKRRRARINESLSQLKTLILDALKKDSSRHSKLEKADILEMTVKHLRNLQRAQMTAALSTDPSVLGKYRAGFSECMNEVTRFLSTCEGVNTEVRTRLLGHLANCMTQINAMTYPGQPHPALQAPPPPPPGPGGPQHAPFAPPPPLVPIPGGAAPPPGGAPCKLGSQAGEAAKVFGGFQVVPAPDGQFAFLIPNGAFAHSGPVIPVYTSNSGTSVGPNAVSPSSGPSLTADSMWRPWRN
UniProt Q15011: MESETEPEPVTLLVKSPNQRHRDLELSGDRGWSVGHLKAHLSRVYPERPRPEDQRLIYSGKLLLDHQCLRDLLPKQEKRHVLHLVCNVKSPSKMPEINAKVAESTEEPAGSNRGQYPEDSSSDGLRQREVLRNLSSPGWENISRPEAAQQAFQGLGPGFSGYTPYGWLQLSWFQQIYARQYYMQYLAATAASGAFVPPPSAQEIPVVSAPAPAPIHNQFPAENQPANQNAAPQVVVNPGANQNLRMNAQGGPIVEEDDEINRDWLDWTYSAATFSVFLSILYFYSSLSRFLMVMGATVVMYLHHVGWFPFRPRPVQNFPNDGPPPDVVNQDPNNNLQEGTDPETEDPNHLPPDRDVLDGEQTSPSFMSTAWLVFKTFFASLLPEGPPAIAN
UniProt O15488: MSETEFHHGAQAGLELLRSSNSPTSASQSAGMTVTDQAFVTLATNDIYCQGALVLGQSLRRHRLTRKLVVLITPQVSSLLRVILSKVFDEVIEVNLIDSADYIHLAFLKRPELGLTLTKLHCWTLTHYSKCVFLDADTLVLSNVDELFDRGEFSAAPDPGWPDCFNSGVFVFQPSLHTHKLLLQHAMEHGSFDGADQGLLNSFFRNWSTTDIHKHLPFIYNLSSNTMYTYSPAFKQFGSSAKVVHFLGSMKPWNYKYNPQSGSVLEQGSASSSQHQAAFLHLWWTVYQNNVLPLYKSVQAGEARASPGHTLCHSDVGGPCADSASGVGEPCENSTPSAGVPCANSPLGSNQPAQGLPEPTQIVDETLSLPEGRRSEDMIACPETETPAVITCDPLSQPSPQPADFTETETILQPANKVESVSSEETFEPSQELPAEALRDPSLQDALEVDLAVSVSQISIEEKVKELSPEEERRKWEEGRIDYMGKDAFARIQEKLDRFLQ
UniProt P68871: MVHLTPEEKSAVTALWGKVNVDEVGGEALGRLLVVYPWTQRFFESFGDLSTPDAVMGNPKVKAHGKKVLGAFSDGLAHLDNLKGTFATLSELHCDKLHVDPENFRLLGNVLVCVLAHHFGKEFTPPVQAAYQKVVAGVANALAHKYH
UniProt Q7Z4H7: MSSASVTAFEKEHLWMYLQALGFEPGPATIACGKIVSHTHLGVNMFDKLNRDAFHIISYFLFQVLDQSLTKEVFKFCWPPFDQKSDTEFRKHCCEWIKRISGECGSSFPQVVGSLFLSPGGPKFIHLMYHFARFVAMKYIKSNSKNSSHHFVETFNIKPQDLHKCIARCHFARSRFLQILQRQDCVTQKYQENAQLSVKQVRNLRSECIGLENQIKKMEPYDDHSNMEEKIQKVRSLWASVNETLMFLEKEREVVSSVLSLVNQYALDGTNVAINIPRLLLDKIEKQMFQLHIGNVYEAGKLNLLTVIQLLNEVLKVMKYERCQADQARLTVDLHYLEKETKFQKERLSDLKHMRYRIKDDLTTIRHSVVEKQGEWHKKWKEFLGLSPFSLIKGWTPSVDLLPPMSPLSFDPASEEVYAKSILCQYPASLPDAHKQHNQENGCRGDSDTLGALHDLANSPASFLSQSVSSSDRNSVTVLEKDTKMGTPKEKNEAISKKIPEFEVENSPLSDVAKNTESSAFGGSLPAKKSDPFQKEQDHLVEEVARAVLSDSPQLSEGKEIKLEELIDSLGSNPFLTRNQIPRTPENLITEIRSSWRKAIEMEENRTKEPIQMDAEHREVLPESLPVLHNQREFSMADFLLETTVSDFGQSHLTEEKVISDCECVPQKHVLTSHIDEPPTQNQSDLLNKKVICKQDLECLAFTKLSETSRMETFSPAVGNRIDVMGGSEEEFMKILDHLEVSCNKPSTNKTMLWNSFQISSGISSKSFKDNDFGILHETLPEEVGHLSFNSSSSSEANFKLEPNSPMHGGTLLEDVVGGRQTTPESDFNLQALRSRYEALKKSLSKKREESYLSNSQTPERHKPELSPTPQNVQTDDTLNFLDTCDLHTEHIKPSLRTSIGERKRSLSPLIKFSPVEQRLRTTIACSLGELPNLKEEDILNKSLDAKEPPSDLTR

Tests used:
Assay in all cases: log2 fold change, soluble protein after heating vs DMSO (PISA); higher = thermal stabilisation; K562 cells, 10 uM, 30 min; active = over 0.2 and 3.5 SD of the protein, either way, in both replicates (recomputed)
bafetinib = compound: Cc1ccc(NC(=O)c2ccc(CN3CC[C@H](N(C)C)C3)c(C(F)(F)F)c2)cc1Nc1nccc(-c2cncnc2)n1 [bafetinib]
Method in brief: (§1)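 K562 cells at 2×10^6 cells/mL were treated with 10 μM compound for 30 min. Aliquots were heated for 3 min across 48°C-58°C, pooled, and extracted in PBS with 0.5% NP-40 at 4°C; soluble protein was the supernatant after 21,000xg for 90 min. Soluble protein was quantified by TMTpro 16plex LC-MS/MS with channel sums equalised, and reported as log2 fold change in thermal stability against DMSO controls, with values from duplicates.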

[1] = compound: Cc1cccc(CC(=O)N2CCc3c2ccc(-c2cn(C)c4ncnc(N)c24)c3F)n1
Method in brief: as §1

nilotinib = compound: Cc1cn(-c2cc(NC(=O)c3ccc(C)c(Nc4nccc(-c5cccnc5)n4)c3)cc(C(F)(F)F)c2)cn1 [nilotinib]
Method in brief: as §1

[2] = compound: Cc1nc(Nc2n[nH]c3c2CN(C(=O)N[C@H](CN(C)C)c2ccccc2)C3(C)C)c2sccc2n1
Method in brief: as §1

dasatinib = compound: Cc1nc(Nc2ncc(C(=O)Nc3c(C)cccc3Cl)s2)cc(N2CCN(CCO)CC2)n1 [dasatinib]
Method in brief: as §1

[3] = compound: Cc1ncc(-c2ccnc(Nc3ccc(S(C)(=O)=O)cc3)n2)n1C(C)C
Method in brief: as §1

[4] = compound: Cn1cc(-c2ccc3c(c2)CCN3C(=O)Cc2cccc(C(F)(F)F)c2)c2c(N)ncnc21
Method in brief: as §1

[5] = compound: Cn1cc(-c2ccc3nnc(C(F)(F)c4ccc5ncccc5c4)n3n2)cn1
Method in brief: as §1

tipifarnib = compound: Cn1cncc1[C@@](N)(c1ccc(Cl)cc1)c1ccc2c(c1)c(-c1cccc(Cl)c1)cc(=O)n2C [tipifarnib]
Method in brief: as §1

mubritinib = compound: FC(F)(F)c1ccc(/C=C/c2nc(COc3ccc(CCCCn4ccnn4)cc3)co2)cc1 [mubritinib]
Method in brief: as §1

Measured: log2 fold change

GYPC (UniProt P04921)
inactive: bafetinib 0 | [1] -0.08 | nilotinib -0.009 | [2] 0.039 | dasatinib 0.073 | [3] 0.034 | [4] -0.127 | [5] 0.015 | tipifarnib 0.134 | mubritinib 0

GTF2H2 (UniProt Q13888)
inactive: bafetinib -0.012 | [1] 0.043 | nilotinib 0.016 | [2] -0.066 | dasatinib 0.03 | [3] -0.001 | [4] 0.057 | [5] -0.039 | tipifarnib 0.028 | mubritinib -0.026

GTF3C6 (UniProt Q969F1)
inactive: bafetinib -0.036 | [1] 0.009 | nilotinib 0.045 | [2] -0.43 | dasatinib -0.033 | [3] 0.028 | [4] -0.293 | tipifarnib 0.082 | mubritinib 0.191

HEATR1 (UniProt Q9H583)
inactive: bafetinib 0.107 | [1] 0.186 | nilotinib 0.264 | [2] -0.224 | dasatinib -0.033 | [3] 0.029 | [5] -0.163 | tipifarnib 0.131 | mubritinib -0.044

GTF3C3 (UniProt Q9Y5Q9)
inactive: bafetinib -0.04 | [1] 0.044 | nilotinib 0.099 | [2] -0.071 | dasatinib 0.09 | [3] -0.316 | tipifarnib -0.162 | mubritinib 0.169

GTF3A (UniProt Q92664)
inactive: bafetinib -0.113 | [1] -0.026 | nilotinib 0.042 | [2] -0.219 | dasatinib -0.137 | [3] -0.031 | [4] 0.023 | tipifarnib -0.12 | mubritinib 0.06

GSTM5 (UniProt P46439)
inactive: bafetinib 0.016 | [1] 0.003 | nilotinib -0.071 | [2] 0.042 | dasatinib -0.005 | [3] 0.082 | [4] 0.025 | tipifarnib -0.008 | mubritinib -0.062

HBD (UniProt P02042)
inactive: bafetinib -0.039 | [1] -0.013 | nilotinib 0.034 | [2] 0.006 | dasatinib 0.054 | [3] -0.015 | [4] 0.161 | [5] 0.203 | tipifarnib -0.058 | mubritinib -0.017

GTF2H3 (UniProt Q13889)
inactive: bafetinib -0.009 | [1] 0.058 | nilotinib 0.041 | [2] 0 | dasatinib 0.024 | [3] -0.064 | [4] -0.113 | [5] -0.02 | tipifarnib -0.025 | mubritinib 0.023

GSR (UniProt P00390)
inactive: bafetinib -0.031 | [1] 0 | nilotinib -0.025 | [2] 0.02 | dasatinib 0.02 | [3] 0 | [4] 0.002 | [5] 0.022 | tipifarnib -0.058 | mubritinib 0.024

GSTO1 (UniProt P78417)
inactive: bafetinib 0.021 | [1] 0.148 | nilotinib -0.009 | [2] -0.021 | dasatinib -0.007 | [3] -0.009 | [4] 0.019 | [5] -0.004 | tipifarnib -0.014 | mubritinib 0.018

GSTM2 (UniProt P28161)
inactive: bafetinib -0.063 | [1] -0.124 | nilotinib 0.001 | [2] 0.025 | [3] -0.036 | [4] 0.062 | [5] 0.111 | tipifarnib 0.088 | mubritinib -0.028

HDAC4 (UniProt P56524)
inactive: bafetinib 0.032 | [1] 0.066 | nilotinib 0.179 | [2] -0.101 | [3] -0.03 | [4] -0.183 | [5] 0.196 | tipifarnib 0.044 | mubritinib 0.036

HERC1 (UniProt Q15751)
inactive: bafetinib -0.023 | [1] 0.023 | nilotinib -0.033 | [2] -0.034 | dasatinib -0.02 | [3] -0.004 | [4] -0.053 | [5] -0.045 | tipifarnib -0.007 | mubritinib 0.034

HADHB (UniProt P55084)
inactive: bafetinib 0.251 | [1] 0.132 | nilotinib 0.074 | [2] -0.106 | dasatinib -0.072 | [3] 0.032 | [4] 0.155 | [5] 0.108 | tipifarnib -0.264
active: mubritinib 0.571

GTPBP6 (UniProt O43824)
inactive: [1] -0.072 | nilotinib 0.13 | [2] 0.069 | dasatinib 0.028 | [3] -0.042 | [4] 0.057 | [5] 0.042 | mubritinib 0.058
active: bafetinib -0.706

GTF2B (UniProt Q00403)
inactive: bafetinib -0.005 | [1] 0.139 | nilotinib -0.134 | [2] -0.13 | dasatinib -0.247 | [3] 0.006 | [4] 0.031 | [5] 0.102 | tipifarnib -0.082 | mubritinib 0.007

GTF2A1 (UniProt P52655)
inactive: bafetinib 0 | [1] -0.047 | nilotinib 0.111 | [2] -0.047 | dasatinib 0.068 | [3] -0.078 | [4] 0.081 | [5] 0.349 | tipifarnib 0.144 | mubritinib -0.008

GUF1 (UniProt Q8N442)
inactive: [1] -0.023 | nilotinib -0.068 | [2] 0.034 | dasatinib -0.143 | [3] -0.002 | [5] 0.022 | tipifarnib -0.283 | mubritinib -0.259

HAGHL isoform 2 (UniProt Q6PII5)
inactive: bafetinib -0.013 | nilotinib 0.06 | [2] 0.163 | dasatinib 0.134 | [3] -0.017 | [4] 0.15 | [5] -0.06 | mubritinib -0.175

H1-0 (UniProt P07305)
inactive: dasatinib 0.298

HAUS7 isoform 2 (UniProt Q99871)
inactive: [5] 0.013

HES1 (UniProt Q14469)
inactive: [1] 0.07 | dasatinib -0.05 | [4] -0.007 | mubritinib 0.27

HERPUD1 (UniProt Q15011)
inactive: tipifarnib 0.086 | mubritinib -0.07

HEXD isoform 2 (UniProt Q8WVB3)
inactive: [1] -0.103 | dasatinib -0.062 | tipifarnib 0.107

H3C1 (UniProt P68431)
inactive: [5] -0.069

HEATR6 (UniProt Q6AI08)
inactive: bafetinib -0.024 | nilotinib -0.008 | [2] 0.043 | dasatinib 0.047 | [3] -0.014 | [4] -0.001 | [5] 0.002 | tipifarnib -0.05 | mubritinib 0.015

GSPT1 isoform 2 (UniProt P15170)
inactive: nilotinib 0.007 | [2] 0.196 | [3] -0.027

HGF (UniProt P14210)
inactive: bafetinib -0.161 | nilotinib 0.047 | [2] -0.038 | dasatinib 0.262 | [3] -0.156 | [4] 0.142 | mubritinib -0.155

HAGHL (UniProt Q6PII5)
inactive: bafetinib -0.204 | dasatinib 0.116 | [4] -0.012 | [5] -0.104 | tipifarnib 0.02 | mubritinib 0.017

H6PD (UniProt O95479)
inactive: [1] -0.072 | nilotinib -0.218 | [2] -0.058 | dasatinib -0.071 | [3] -0.318 | [4] 0.082 | [5] 0.019 | tipifarnib 0.213 | mubritinib -0.046

GTPBP8 (UniProt Q8N3Z3)
inactive: nilotinib 0.328 | [2] -0.298 | [3] -0.105 | tipifarnib 0.158

HECTD3 (UniProt Q5T447)
inactive: bafetinib -0.008 | nilotinib -0.018 | [2] -0.018 | dasatinib -0.073 | [3] 0.018 | [4] -0.091 | [5] -0.075 | tipifarnib 0.031 | mubritinib 0.057

HAL (UniProt P42357)
inactive: nilotinib 0.776 | [2] -0.112 | dasatinib -0.867 | [3] 0.455 | [4] 0.528 | tipifarnib -0.098 | mubritinib -0.436

GSTA1 (UniProt P08263)
inactive: bafetinib -0.229 | nilotinib 0.236 | [2] -0.152 | [3] -0.024

HGFAC (UniProt Q04756)
inactive: bafetinib -0.139 | nilotinib 0.178 | [2] 0.276 | dasatinib 0.038 | [3] 0.224 | tipifarnib 0.034 | mubritinib -0.434

GTF2H1 (UniProt P32780)
inactive: [1] -0.191 | [4] -0.036 | [5] -0.07 | mubritinib -0.135

HCFC1 (UniProt P51610)
inactive: [1] -0.143 | nilotinib -0.141 | [2] -0.071 | [3] 0.228 | [5] 0.032 | mubritinib -0.015

HFM1 (UniProt A2PYH4)
inactive: bafetinib -0.283 | dasatinib 0.029 | tipifarnib -0.127

HABP4 (UniProt Q5JVS0)
inactive: bafetinib -0.267 | [5] 0.085

HAUS8 (UniProt Q9BT25)
inactive: [1] 0.086 | nilotinib -0.028 | [2] -0.171 | [3] 0.062 | [4] -0.167 | [5] -0.24 | tipifarnib 0.083 | mubritinib -0.235

GYG2 (UniProt O15488)
inactive: mubritinib 0.194

HAUS3 (UniProt Q68CZ6)
inactive: dasatinib -0.27 | [4] -0.257 | [5] -0.109 | tipifarnib 0.013 | mubritinib 0.028

HBZ, A0A494C057
inactive: bafetinib -0.015 | nilotinib 0.171 | [2] -0.035 | [3] 0.127 | mubritinib -0.08

GSTCD (UniProt Q8NEC7)
inactive: bafetinib 0.125 | nilotinib 0.026 | [2] -0.082 | [3] -0.016 | [4] 0.059 | [5] 0 | tipifarnib -0.072 | mubritinib 0.217

HBB (UniProt P68871)
inactive: mubritinib -0.044

H3-3A (UniProt P84243)
inactive: bafetinib -0.046 | nilotinib -0.038 | [2] -0.123 | dasatinib -0.133 | [3] -0.067 | [4] 0.08 | tipifarnib -0.261 | mubritinib 0.236

HERPUD2 (UniProt Q9BSE4)
inactive: bafetinib -0.04 | dasatinib -0.269 | [4] 0.122 | [5] -0.111

Quoted at random: two entries already listed, in no set order.
GSTCD (UniProt Q8NEC7)
inactive: bafetinib 0.125 | nilotinib 0.026 | [2] -0.082 | [3] -0.016 | [4] 0.059 | [5] 0 | tipifarnib -0.072 | mubritinib 0.217

H3-3A (UniProt P84243)
inactive: bafetinib -0.046 | nilotinib -0.038 | [2] -0.123 | dasatinib -0.133 | [3] -0.067 | [4] 0.08 | tipifarnib -0.261 | mubritinib 0.236

Additional records follow.

HBD (UniProt E9PEW8)
inactive: [1] -0.006 | nilotinib -0.063 | [2] 0.065 | [3] -0.012 | mubritinib -0.242

GTF2H4 (UniProt Q92759)
inactive: [1] -0.008 | nilotinib -0.027 | [2] -0.137 | dasatinib -0.061 | [3] -0.002 | [4] -0.092 | tipifarnib 0.184 | mubritinib 0.021

HACD2 (UniProt Q6Y1H2)
inactive: [4] 0.245 | tipifarnib -0.005 | mubritinib -0.039

HAUS2 (UniProt Q9NVX0)
inactive: dasatinib -0.022 | [4] -0.041 | tipifarnib 0.022 | mubritinib 0.056

HAUS6 (UniProt Q7Z4H7)
inactive: bafetinib 0.018 | nilotinib -0.058 | [2] -0.103 | dasatinib 0.001 | [3] -0.023 | [4] -0.311 | [5] -0.011 | tipifarnib -0.087 | mubritinib -0.019

HAUS5 (UniProt O94927)
inactive: [1] 0.076 | nilotinib -0.09 | [2] -0.165 | dasatinib -0.272 | [3] 0.008 | [5] -0.115 | tipifarnib 0.125 | mubritinib -0.01

HECTD4 (UniProt Q9Y4D8)
inactive: mubritinib 0.041

GZF1 (UniProt Q9H116)
inactive: dasatinib 0.143

HEXIM2 (UniProt Q96MH2)
inactive: [1] 0.021
